Measured data: PubChem BioAssay AID1259405 (NCATS, 2018)

Test: 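Knock-downs that lift recombinant protein yield in hamster ovary cells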 (primary screen)
System: Chinese hamster CHO-K1 ovary cells with stable secreted eGFP expression
Reagents: single siRNA against mouse genes, 0.8 pmol siRNA per well (2 µl of 400 nM stock)
Duration: 3 days
Measured: 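Percent of the per-plate non-targeting control median for intracellular GFP per well by laser scanning cytometry and for cell viability by ATP luminescence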
Scale: GFP, % of control: higher = more GFP per well, higher productivity; viability (ATP), % of control: higher = more viable cells (more ATP)
Active means: 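Called active when intracellular GFP, relative to negative control, is at or above 120%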
Shown is one part, drawn at random, of about 50,000 reagents tested. Over the whole deposit, about 4,000 (8%) got an active call. 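Mouse siRNA library applied to hamster cells; one well for each siRNA.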 The numbers tell different reagents against one gene apart.

Sly #1: GFP, % of control = 82.3; viability (ATP), % of control = 46.5; Call = inactive
Sly #2: GFP, % of control = 81.5; viability (ATP), % of control = 83; Call = inactive
Sly #3: GFP, % of control = 79.7; viability (ATP), % of control = 84.3; Call = inactive
Ccdc125 #1: GFP, % of control = 58.9; viability (ATP), % of control = 37.8; Call = inactive
Ccdc125 #2: GFP, % of control = 82; viability (ATP), % of control = 98.8; Call = inactive
Ccdc125 #3: GFP, % of control = 137; viability (ATP), % of control = 121; Call = active
Ahsp #1: GFP, % of control = 76.6; viability (ATP), % of control = 46.1; Call = inactive
Ahsp #2: GFP, % of control = 173; viability (ATP), % of control = 95.7; Call = active
Ahsp #3: GFP, % of control = 64.9; viability (ATP), % of control = 58.6; Call = inactive

Next part (2 carried over from the part before).
Ahsp #2: GFP, % of control = 173; viability (ATP), % of control = 95.7; Call = active
Ahsp #3: GFP, % of control = 64.9; viability (ATP), % of control = 58.6; Call = inactive
Nrcam #1: GFP, % of control = 52.1; viability (ATP), % of control = 58.1; Call = inactive
Nrcam #2: GFP, % of control = 100; viability (ATP), % of control = 57.6; Call = inactive
Nrcam #3: GFP, % of control = 82.7; viability (ATP), % of control = 90.9; Call = inactive
Xkr7 #1: GFP, % of control = 35.5; viability (ATP), % of control = 90.8; Call = inactive
Xkr7 #2: GFP, % of control = 82.1; viability (ATP), % of control = 67.3; Call = inactive
Xkr7 #3: GFP, % of control = 78; viability (ATP), % of control = 90.2; Call = inactive
Tax1bp3 #1: GFP, % of control = 92.9; viability (ATP), % of control = 90.5; Call = inactive
Tax1bp3 #2: GFP, % of control = 45.5; viability (ATP), % of control = 47; Call = inactive
Tax1bp3 #3: GFP, % of control = 68.6; viability (ATP), % of control = 47.2; Call = inactive
